Results: patent US20090175886A1 (Bristol-Myers Squibb, published 2009)
Results are given in words; binding and its absence hold for the method and conditions named. Some results given as binding are weak or reduced against the parent protein; the word gives no strength.

Chains of the proteins cited; added tags and fusions are not shown. Residues count along the entry.
UniProt P28908, residues 19-595: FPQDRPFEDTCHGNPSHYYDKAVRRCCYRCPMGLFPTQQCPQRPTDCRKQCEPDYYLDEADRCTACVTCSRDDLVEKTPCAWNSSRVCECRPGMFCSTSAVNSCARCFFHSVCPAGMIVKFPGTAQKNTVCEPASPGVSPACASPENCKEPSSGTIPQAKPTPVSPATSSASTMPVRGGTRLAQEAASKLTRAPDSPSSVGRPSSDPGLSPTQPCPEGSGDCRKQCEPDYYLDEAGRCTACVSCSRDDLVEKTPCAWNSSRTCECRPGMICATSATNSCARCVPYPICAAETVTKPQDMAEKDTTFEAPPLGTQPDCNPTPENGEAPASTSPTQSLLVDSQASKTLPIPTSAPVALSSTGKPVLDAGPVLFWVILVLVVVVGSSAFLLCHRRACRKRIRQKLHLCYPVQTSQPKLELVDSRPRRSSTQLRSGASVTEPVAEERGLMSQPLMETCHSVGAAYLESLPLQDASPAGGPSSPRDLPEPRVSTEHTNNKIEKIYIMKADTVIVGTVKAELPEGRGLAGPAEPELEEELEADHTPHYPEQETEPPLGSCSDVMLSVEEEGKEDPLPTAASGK

Assays:
[1] = biological target: human CD30 expressed on cells (L540, L428, L1236, Karpas cell lines; activated human peripheral blood cells) (human) (UniProt P28908); test: flow cytometry on L540 cells (discussion of Example 7)
[2] = biological target: human CD30 expressed on cells (L540, L428, L1236, Karpas cell lines; activated human peripheral blood cells) (human) (UniProt P28908); test: flow cytometry on CD30-expressing L540 cells, FITC-labelled goat anti-human secondary antibody

B1: 5F11 LEX^Opt mAb (glyco-optimized 5F11 produced in Lemna minor with FucT/XylT RNAi, vector MDXA04) (antibody, V domains shown)
VH: QVQLQQWGAGLLKPSETLSLTCAVYGGSFSAYYWSWIRQPPGKGLEWIGDINHGGGTNYNPSLKSRVTISVDTSKNQFSLKLNSVTAADTAVYYCASLTAYWGQGSLVTVSS
VL: DIQMTQSPTSLSASVGDRVTITCRASQGISSWLTWYQQKPEKAPKSLIYAASSLQSGVPSRFSGSGSGTDFTLTISSLQPEDFATYYCQQYDSYPITFGQGTRLEIK
notes: N-glycans at Asn 297 are 95.8% GnGn (G0), with no fucosyl or xylosyl; also called MDXA04 derived mAb; glyco-optimized anti-CD30 mAb
binding [1]: binds
binding [2]: binds
